Laboratory results taken from patent EP1708692B1, “DICHLOROACETATE IN COMBINATION WITH AN INOTROPE FOR CARDIOPROTECTION” (The Governors of the University of Alberta, priority 2004, dated 2005).
Entries after “also recorded” stand apart in the source; their conditions may differ. For part of these data: The name of at least one read-out is uncertain. For part of these data: At least one compound was matched to its structure with a doubt left.

Key:
[1] = Plasma DCA levels by HPLC after bolus, adult CABG patients (Example A); format: in vivo, human; details: following infusion of 50mg/kg Na+ Dichloroacetate via cardiopulmonary bypass pump, 1 hour following administration, n=8, 60 min
Procedure: DCA or saline was administered to 18 patients undergoing elective cardiac bypass grafting surgery (CABG) in a double blinded randomized manner DCA (50mg/kg in 100 ml of saline) or placebo was injected into the aortic root, immediately prior to removing aortic cross clamp. Based on the pharmacokinetics of DCA, we anticipated that this would produce a plasma concentration of approximately 1 mM. The study consisted of 8 DCA-treated patients and 10 placebo-treated patients.
(§1) The intervention involved DCA (50mg/kg) or placebo injected into the aortic root immediately prior to removing aortic cross clamp. The coded solution was made such that a dose of lml/kg provides the appropriate dose of DCA or placebo. Based on the pharmacokinetics of DCA, this was expected to result in a plasma level of DCA in the therapeutic range of (1mM). All blood samples were analyzed by HPLC for DCA concentration.
Plasma samples were processed for DCA levels using a high performance liquid chromatography (HPLC) technique that separated the DCA from other plasma constituents. In brief, 20 µl of plasma sample was injected into a Beckman Gold HPLC containing a IonoBpher 5A column (250x4.6mm LxID) and a AX Guard Column. […] The flow rate of the HPLC was set at 3.0 ml/min and the DCA eluted from the column was detected by comparing DCA elution times to acetate, monochloroacetate, and trichloroacetate standards. […]

[2] = test system: pyruvate dehydrogenase (PDH); assay: PDH activity in ventricular biopsies, radioisotope procedure (Example A); format: in vivo, human; details: 50mg/kg bolus, early reperfusion period, compared to placebo
[3] = Blood lactate levels, enzymatic assay (Example A); format: in vivo, human; details: 50mg/kg bolus, compared to placebo (Figure 3)
[4] = test system: pediatric patients requiring heart surgery to connect complex congenital heart lesions; assay: Clinical outcome after single DCA bolus: Inotrope Score, ICU time, ventilator time, echocardiography (Example B); format: in vivo; details: 50mg/kg bolus, first 1 hour period following surgery, compared to placebo
Procedure: This study was a randomized, placebo-controlled, double blinded, single surgeon, study of the use of DCA in 40 high-risk pediatric patients requiring heart surgery to connect complex congenital heart lesions.
In this trial, 40 children were recruited to participate in a single surgeon study, of which 18 received DCA and 22 received placebo. The 1995 power calculations were based on separation of the CPB-1 trial of n = 40 patients.
as §1, with “in” for “in a”, “levels” for “level”
In both the operating room at the end of cardiopulmonary bypass and in the intensive care unit, parenteral drugs were scored on an hourly basis with 1 point allotted for each level for each bolus or infusion given within the previous hour for the first 24 hours post-operatively. Thus, at the end of 24 hours high scores indicated poorer cardiac function.

isolated rat hearts = details: cited from earlier work

## O=C(O)C(Cl)Cl [DCA, dichloroacetate]
[1]
  concentration: 948 ± 61 µM
[2]
  PDH activity in heart muscle biopsies: significant increase in PDH activity
[3]
  lactate levels: significantly decreased lactate levels
[4]
  Inotrope Score / need for inotropic drugs: significantly reduced the need for inotropic drugs; also recorded: significantly lower
Isolated rat hearts; isolated perfused hearts
  dose range effective in increasing PDH levels and improving myocardial function: about 1 mM
Isolated rat hearts; isolated rat hearts, reperfusion following a severe episode of ischemia
  functional recovery and cardiac efficiency during reperfusion: dramatically improves functional recovery and cardiac efficiency
